Drawing on the supplement of paper PMC10849652, this text covers log2 fold change for 39 targets.

The chains behind the UniProt entries cited, without tags or fusion partners. Where a name states a change or a piece, a line headed by the entry shows the natural chain unless it says otherwise.
UniProt Q9UJZ1: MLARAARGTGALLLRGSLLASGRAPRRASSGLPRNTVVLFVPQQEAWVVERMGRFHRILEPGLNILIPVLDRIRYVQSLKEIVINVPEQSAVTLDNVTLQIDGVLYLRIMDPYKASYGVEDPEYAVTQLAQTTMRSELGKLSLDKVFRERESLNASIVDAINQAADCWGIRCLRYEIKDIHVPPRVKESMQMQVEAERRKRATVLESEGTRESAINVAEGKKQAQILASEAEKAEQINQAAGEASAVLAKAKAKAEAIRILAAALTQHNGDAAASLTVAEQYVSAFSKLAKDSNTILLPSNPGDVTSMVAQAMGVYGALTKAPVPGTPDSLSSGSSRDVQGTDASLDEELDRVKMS
UniProt Q9ULQ0: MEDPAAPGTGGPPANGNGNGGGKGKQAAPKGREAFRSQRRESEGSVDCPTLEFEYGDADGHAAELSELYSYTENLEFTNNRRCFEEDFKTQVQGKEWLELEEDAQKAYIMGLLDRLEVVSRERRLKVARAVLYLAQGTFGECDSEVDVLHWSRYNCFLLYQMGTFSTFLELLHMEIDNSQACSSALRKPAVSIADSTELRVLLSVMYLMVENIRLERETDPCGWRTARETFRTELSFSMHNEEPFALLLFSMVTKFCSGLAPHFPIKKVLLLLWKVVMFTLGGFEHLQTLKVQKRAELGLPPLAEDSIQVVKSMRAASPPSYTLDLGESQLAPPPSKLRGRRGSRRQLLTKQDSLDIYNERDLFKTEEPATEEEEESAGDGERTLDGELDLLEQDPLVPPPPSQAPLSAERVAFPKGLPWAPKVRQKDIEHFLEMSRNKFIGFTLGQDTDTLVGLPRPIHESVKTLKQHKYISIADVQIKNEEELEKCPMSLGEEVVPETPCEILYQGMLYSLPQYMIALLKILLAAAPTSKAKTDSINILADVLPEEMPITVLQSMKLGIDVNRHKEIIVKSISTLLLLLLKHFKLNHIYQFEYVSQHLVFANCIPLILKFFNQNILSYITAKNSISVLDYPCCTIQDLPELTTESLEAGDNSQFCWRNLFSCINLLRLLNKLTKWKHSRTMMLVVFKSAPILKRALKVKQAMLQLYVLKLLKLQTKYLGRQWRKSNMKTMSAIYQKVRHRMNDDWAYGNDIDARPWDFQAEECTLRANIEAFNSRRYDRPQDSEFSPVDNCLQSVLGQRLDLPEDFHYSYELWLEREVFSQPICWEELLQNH
UniProt P51687: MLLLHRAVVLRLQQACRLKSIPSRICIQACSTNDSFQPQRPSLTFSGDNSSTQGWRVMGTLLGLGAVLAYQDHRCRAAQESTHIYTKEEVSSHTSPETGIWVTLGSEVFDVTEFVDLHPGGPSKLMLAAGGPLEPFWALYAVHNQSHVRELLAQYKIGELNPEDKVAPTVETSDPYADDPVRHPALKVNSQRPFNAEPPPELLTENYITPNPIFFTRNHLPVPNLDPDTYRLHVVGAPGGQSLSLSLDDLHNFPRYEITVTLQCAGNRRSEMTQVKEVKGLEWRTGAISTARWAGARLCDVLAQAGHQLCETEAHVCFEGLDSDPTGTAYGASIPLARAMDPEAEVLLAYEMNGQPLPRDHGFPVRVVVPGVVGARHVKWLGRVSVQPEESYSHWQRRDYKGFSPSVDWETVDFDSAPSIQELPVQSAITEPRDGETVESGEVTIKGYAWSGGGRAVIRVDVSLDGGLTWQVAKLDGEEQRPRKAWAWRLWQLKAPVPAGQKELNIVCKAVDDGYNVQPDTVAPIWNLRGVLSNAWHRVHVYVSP
UniProt Q86VP1, whole entry, looked up: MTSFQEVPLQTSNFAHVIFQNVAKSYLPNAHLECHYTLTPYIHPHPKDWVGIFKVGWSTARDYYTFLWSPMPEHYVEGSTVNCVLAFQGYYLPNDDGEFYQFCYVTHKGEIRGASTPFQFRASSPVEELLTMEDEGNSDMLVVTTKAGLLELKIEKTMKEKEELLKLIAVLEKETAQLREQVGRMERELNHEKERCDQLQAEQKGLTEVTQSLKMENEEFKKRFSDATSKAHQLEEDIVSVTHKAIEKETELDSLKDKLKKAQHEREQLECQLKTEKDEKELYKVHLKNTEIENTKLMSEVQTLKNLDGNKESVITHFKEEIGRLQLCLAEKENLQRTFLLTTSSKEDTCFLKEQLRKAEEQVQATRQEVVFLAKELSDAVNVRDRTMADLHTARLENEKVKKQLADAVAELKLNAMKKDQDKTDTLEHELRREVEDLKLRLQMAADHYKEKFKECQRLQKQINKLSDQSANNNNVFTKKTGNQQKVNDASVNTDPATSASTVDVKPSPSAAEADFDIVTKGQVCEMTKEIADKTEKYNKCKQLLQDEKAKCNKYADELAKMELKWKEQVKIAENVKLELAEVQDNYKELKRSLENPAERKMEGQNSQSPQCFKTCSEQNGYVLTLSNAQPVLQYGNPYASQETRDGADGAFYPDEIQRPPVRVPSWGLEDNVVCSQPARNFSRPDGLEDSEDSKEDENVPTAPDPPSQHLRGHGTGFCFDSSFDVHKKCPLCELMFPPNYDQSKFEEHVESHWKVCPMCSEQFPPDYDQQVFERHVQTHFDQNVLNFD
UniProt O00268, whole entry, looked up: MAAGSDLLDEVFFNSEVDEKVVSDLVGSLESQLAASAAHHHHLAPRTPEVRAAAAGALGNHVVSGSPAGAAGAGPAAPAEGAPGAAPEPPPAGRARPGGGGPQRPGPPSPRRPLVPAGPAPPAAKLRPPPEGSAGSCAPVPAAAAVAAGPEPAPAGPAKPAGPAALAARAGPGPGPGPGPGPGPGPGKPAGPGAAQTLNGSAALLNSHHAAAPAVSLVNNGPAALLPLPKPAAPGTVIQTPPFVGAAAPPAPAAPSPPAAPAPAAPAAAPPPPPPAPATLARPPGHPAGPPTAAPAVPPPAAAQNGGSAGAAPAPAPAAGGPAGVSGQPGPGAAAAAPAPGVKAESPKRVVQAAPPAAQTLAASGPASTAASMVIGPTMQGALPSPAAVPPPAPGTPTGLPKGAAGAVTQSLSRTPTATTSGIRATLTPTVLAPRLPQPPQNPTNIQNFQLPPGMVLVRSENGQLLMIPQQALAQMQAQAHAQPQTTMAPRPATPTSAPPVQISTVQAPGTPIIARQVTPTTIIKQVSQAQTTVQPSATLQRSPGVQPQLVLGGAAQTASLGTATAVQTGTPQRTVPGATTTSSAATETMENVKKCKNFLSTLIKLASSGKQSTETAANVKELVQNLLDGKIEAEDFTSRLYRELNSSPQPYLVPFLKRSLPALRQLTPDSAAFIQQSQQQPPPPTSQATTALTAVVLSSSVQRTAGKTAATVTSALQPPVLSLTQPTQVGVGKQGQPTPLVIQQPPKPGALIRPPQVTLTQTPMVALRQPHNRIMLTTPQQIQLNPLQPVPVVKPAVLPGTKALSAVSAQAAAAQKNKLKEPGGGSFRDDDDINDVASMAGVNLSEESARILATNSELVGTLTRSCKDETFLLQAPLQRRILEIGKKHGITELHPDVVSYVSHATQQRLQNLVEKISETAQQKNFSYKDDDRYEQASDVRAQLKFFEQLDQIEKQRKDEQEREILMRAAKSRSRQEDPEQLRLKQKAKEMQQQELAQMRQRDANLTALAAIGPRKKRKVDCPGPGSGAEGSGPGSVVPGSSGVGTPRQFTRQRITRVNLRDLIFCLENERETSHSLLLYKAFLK
UniProt Q86Y82: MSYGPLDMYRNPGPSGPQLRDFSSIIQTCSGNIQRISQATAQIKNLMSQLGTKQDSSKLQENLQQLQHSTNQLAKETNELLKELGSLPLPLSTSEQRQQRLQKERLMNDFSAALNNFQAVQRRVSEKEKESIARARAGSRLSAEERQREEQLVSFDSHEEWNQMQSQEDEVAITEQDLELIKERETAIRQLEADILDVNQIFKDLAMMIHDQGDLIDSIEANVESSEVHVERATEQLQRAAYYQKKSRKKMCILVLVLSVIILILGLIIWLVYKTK
UniProt Q13188: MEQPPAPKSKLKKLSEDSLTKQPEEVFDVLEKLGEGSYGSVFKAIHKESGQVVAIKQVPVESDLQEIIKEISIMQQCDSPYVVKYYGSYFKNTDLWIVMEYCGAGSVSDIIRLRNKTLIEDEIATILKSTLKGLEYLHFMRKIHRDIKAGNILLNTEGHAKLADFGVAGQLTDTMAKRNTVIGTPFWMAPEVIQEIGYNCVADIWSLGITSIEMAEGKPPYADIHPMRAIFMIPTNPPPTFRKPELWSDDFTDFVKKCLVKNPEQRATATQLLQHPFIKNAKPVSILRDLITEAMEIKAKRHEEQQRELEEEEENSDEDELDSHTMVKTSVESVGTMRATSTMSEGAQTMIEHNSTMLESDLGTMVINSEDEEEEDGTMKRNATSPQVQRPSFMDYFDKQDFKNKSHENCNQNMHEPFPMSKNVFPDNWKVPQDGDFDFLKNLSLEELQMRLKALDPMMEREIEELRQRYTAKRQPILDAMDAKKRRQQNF
UniProt Q92844: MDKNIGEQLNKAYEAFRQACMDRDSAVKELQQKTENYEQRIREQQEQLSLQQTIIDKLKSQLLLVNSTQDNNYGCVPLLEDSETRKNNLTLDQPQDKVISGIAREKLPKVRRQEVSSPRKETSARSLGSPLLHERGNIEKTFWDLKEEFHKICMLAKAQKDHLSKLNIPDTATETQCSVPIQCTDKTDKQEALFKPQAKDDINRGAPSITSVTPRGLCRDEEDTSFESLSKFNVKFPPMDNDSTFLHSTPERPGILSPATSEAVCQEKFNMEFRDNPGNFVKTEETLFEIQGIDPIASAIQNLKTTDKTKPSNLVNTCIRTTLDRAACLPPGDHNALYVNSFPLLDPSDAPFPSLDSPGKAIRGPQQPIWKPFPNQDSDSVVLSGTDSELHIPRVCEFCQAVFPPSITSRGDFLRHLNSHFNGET
UniProt Q17R31: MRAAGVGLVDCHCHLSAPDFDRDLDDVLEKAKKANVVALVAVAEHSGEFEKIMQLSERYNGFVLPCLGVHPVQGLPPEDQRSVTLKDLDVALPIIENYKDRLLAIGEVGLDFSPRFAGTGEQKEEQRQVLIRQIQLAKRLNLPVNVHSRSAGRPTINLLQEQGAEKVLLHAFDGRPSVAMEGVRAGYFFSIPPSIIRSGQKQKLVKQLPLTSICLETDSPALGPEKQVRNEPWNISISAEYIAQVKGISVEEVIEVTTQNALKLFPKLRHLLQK
UniProt Q5VSL9: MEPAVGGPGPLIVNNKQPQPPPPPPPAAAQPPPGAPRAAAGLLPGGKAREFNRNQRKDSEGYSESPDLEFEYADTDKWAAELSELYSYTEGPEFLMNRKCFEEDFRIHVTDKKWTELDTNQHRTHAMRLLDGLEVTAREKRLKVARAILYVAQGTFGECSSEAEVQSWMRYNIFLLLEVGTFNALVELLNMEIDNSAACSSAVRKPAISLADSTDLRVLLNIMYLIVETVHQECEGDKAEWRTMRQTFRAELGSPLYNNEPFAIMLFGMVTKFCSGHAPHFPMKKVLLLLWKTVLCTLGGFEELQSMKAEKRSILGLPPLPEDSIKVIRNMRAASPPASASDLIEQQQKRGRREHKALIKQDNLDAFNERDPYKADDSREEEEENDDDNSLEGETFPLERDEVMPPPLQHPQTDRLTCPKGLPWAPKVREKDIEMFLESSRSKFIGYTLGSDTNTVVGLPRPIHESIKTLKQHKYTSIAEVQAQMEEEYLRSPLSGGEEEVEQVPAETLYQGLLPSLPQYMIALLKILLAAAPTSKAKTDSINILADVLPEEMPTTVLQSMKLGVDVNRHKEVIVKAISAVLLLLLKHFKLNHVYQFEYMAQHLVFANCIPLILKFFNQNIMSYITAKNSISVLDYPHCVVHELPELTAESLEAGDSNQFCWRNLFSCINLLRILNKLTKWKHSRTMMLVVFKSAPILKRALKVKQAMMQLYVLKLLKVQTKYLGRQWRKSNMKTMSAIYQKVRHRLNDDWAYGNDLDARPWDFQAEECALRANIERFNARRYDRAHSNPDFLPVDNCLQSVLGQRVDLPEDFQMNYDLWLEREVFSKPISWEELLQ
UniProt O60506: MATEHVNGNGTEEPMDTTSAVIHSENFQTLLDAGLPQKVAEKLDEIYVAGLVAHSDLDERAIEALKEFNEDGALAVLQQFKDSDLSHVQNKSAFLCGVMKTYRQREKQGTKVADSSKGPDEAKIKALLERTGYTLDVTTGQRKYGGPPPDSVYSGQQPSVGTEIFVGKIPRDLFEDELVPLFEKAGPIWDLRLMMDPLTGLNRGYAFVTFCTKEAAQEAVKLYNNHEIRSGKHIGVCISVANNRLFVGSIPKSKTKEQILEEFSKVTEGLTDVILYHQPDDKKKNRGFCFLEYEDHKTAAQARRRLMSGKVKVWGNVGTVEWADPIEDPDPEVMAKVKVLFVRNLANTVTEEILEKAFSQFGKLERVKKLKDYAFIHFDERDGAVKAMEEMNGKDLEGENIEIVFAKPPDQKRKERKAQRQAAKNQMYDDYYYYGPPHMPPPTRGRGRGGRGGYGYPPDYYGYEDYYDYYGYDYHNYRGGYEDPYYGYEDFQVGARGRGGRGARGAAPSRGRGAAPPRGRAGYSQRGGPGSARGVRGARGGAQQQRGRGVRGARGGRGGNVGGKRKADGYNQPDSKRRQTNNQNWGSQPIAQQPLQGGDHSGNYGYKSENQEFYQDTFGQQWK

Some of the results follow.

Compound in the first assay: C#Cc1cccc(Nc2ncnc3cc(OCCOC)c(OCCOC)cc23)c1 [erlotinib]
Description: log2 fold change, soluble protein after heating vs DMSO (PISA); higher = thermal stabilisation; K562 cells, 10 uM, 30 min; active = over 0.2 and 3.5 SD of the protein, either way, in both replicates (recomputed). The method, boiled down:
(§1)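 K562 cells at 2×10^6 cells/mL were treated for 30 min with 10 μM compound, and aliquots were heated for 3 min over 48°C-58°C before pooling. Extraction used PBS with 0.5% NP-40 at 4°C, and soluble protein was the supernatant after 21,000xg for 90 min, measured by TMTpro 16plex LC-MS/MS with channel sums equalised. Thermal stability values, relative to control samples and from duplicates, are log2 fold changes.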
Take STOML2 (UniProt Q9UJZ1): the log2 fold change was inactive: 0.039.
On the same count and under the same terms, the figure for STRBP (UniProt Q96SI9) is inactive: 0.035; for STRIP2 (UniProt Q9ULQ0) it is inactive: -0.053; for SUOX (UniProt P51687) it is inactive: 0.044.
On to TACO1 (UniProt Q9BSH4), for which the log2 fold change is inactive: 0.188.
Turning to SUN2 (UniProt Q9UH99), the log2 fold change is inactive: -0.067.
As to TARSL2 (UniProt A2RTX5), the log2 fold change is inactive: 0.038.
Still for that read-out and setting: then TAX1BP1 (UniProt Q86VP1), with inactive: -0.079; and TAF4 (UniProt O00268), with inactive: 0.007.
STX12 (UniProt Q86Y82): the log2 fold change is inactive: 0.059.
On the same count and under the same terms, then STK3 isoform 2 (UniProt Q13188), with inactive: 0.031.
The same measure, in the same setting: then TAGLN2 isoform 2 (UniProt P37802), with inactive: -0.008; and TANK (UniProt Q92844), with inactive: -0.019.
Still for that read-out and setting: then SUPT4H1 (UniProt P63272), with inactive: -0.01.
As to SYPL1 (UniProt Q16563), the log2 fold change was inactive: 0.014.
Same read-out and setting: then STX4 (UniProt Q12846), with inactive: -0.031; and TBC1D13 (UniProt Q9NVG8), with inactive: 0.049.
Same read-out and setting: then SUCLG1 (UniProt P53597), with inactive: 0.033; and TAF8 isoform 2 (UniProt Q7Z7C8), with inactive: -0.055.
On the same count and under the same terms, then STXBP2 isoform 3 (UniProt Q15833), with inactive: 0.088.
Consider TAF15 (UniProt Q92804), for which the log2 fold change was inactive: -0.088.
Turning to SUB1 (UniProt P53999), the log2 fold change was inactive: 0.029.
Take TARS2 (UniProt Q9BW92): the log2 fold change is inactive: 0.042.
With SYNE1 (UniProt Q8NF91), the log2 fold change is inactive: 0.155.
Take STX17 (UniProt P56962): the log2 fold change is inactive: 0.206.
Same read-out and setting: then SUPT6H (UniProt Q7KZ85), with inactive: 0.117; and SYAP1 (UniProt Q96A49), with inactive: -0.007; and TAL1 (UniProt P17542), with inactive: -0.004.
On the same count and under the same terms, then SUPV3L1 (UniProt Q8IYB8), with inactive: 0.
The same measure, in the same setting: then TBC1D10B (UniProt Q4KMP7), with inactive: -0.013; and TARBP2 (UniProt Q15633), with inactive: 0.058.
Turning to TATDN3 isoform 3 (UniProt Q17R31), the log2 fold change is inactive: 0.012.
On the same count and under the same terms, the figure for SVIP (UniProt Q8NHG7) is inactive: -0.009; for STRIP1 (UniProt Q5VSL9) it is inactive: 0.039.
Same read-out and setting: the figure for SYNJ2 (UniProt O15056) is inactive: 0.008; for STK38 (UniProt Q15208) it is inactive: 0.039; for TACC1 isoform 2 (UniProt O75410) it is inactive: 0.025.
The same measure, in the same setting: then SYNCRIP (UniProt O60506), with inactive: -0.092; and STUB1 (UniProt Q9UNE7), with inactive: 0.003.

Compound in the next assay: C/C(=N\NC(=O)C1=CC(=CC=C1)S(=O)(=O)N2CCOCC2)/C3=C(C=CC(=C3)Cl)O
The assay is described as above. The method, boiled down:
as §1
For the target STOML2 (UniProt Q9UJZ1), the log2 fold change is inactive: -0.045.
On the same count and under the same terms, the figure for STRBP (UniProt Q96SI9) is inactive: -0.093; for STRIP2 (UniProt Q9ULQ0) it is inactive: -0.003.
The same measure, in the same setting: then SUOX (UniProt P51687), with inactive: 0.047.
Take TACO1 (UniProt Q9BSH4): the log2 fold change was inactive: 0.177.
Same read-out and setting: then SUN2 (UniProt Q9UH99), with inactive: 0.023.
Consider TARSL2 (UniProt A2RTX5), for which the log2 fold change is inactive: 0.009.
Regarding TAX1BP1 (UniProt Q86VP1), the log2 fold change was inactive: -0.005.
Regarding TAF4 (UniProt O00268), the log2 fold change is inactive: -0.022.
The same measure, in the same setting: the figure for STX12 (UniProt Q86Y82) is inactive: 0.009; for STK3 isoform 2 (UniProt Q13188) it is inactive: -0.067; for TAGLN2 isoform 2 (UniProt P37802) it is inactive: 0.019.
Same read-out and setting: the figure for TANK (UniProt Q92844) is inactive: -0.031.
On the same count and under the same terms, the figure for SUPT4H1 (UniProt P63272) is inactive: 0.008; for SYPL1 (UniProt Q16563) it is inactive: 0.018.
STX4 (UniProt Q12846): the log2 fold change was inactive: -0.017.
TBC1D13 (UniProt Q9NVG8): the log2 fold change was inactive: -0.01.
Same read-out and setting: the figure for SUCLG1 (UniProt P53597) is inactive: 0.027; for TAF8 isoform 2 (UniProt Q7Z7C8) it is inactive: -0.285.
For the target STXBP2 isoform 3 (UniProt Q15833), the log2 fold change is inactive: 0.139.
TAF15 (UniProt Q92804): the log2 fold change was inactive: -0.058.
Turning to SUB1 (UniProt P53999), the log2 fold change was inactive: -0.033.
Still for that read-out and setting: then TARS2 (UniProt Q9BW92), with active: -0.721; and SYNE1 (UniProt Q8NF91), with active: -0.499; and STX17 (UniProt P56962), with inactive: 0.003.
Same read-out and setting: then SUPT6H (UniProt Q7KZ85), with inactive: 0.049.
Still for that read-out and setting: the figure for SYAP1 (UniProt Q96A49) is inactive: 0.03; for TAL1 (UniProt P17542) it is inactive: 0.047; for SUPV3L1 (UniProt Q8IYB8) it is inactive: 0.003.
On to TBC1D10B (UniProt Q4KMP7), for which the log2 fold change was inactive: 0.063.
Take TARBP2 (UniProt Q15633): the log2 fold change is inactive: -0.061.
The same measure, in the same setting: then TATDN3 isoform 3 (UniProt Q17R31), with inactive: -0.01.
Same read-out and setting: then SVIP (UniProt Q8NHG7), with inactive: 0.051; and STRIP1 (UniProt Q5VSL9), with inactive: 0.039; and SYNJ2 (UniProt O15056), with inactive: 0.24.
The same measure, in the same setting: then STK38 (UniProt Q15208), with inactive: 0.138; and TACC1 isoform 2 (UniProt O75410), with inactive: -0.002.
For the target SYNCRIP (UniProt O60506), the log2 fold change was inactive: -0.047.
The same measure, in the same setting: the figure for STUB1 (UniProt Q9UNE7) is inactive: 0.003.
